{"source": "PubChem BioAssay AID1159584 (Peter MacCallum Cancer Centre, 2016)", "aim": "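Knock-downs that harm CDH1-null cells more than parental MCF10A cells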 (primary screen)", "cells": "human MCF10A breast epithelial cells, parental and CDH1-null", "reagent": "siRNA against human genes", "measured": "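ATP luminescence (CellTiter-Glo) viability per line relative to mean mock wells over all plates, and the ratio of CDH1-null to parental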", "scale": "CDH1-null / parental viability ratio: higher = CDH1-null cells survive relatively better than parental; CDH1-null viability vs mock: higher = more viable CDH1-null cells", "units": "CDH1-null viability vs mock in fraction of mock", "note": "The deposit covers about 18,000 reagents; below is an unselected part. Not all columns of the deposit are shown. The record does not give: the amount of reagent, the time to read-out."}
{"target gene":"LINC03042 (long independently transcribed non-coding RNA 3042)","PubChem SID":"SID134329562","CDH1-null / parental viability ratio":0.91,"CDH1-null viability vs mock":1.12}
{"target gene":"NGLY1 (N-glycanase 1)","PubChem SID":"SID134320447","CDH1-null / parental viability ratio":0.9,"CDH1-null viability vs mock":0.85}
{"target gene":"ELP4 (elongator acetyltransferase complex subunit 4)","PubChem SID":"SID152147180","CDH1-null / parental viability ratio":1.09,"CDH1-null viability vs mock":1.02}
{"target gene":"OTUB2 (OTU deubiquitinase, ubiquitin aldehyde binding 2)","PubChem SID":"SID152156385","CDH1-null / parental viability ratio":1.06,"CDH1-null viability vs mock":0.69}
{"target gene":"ICA1L (islet cell autoantigen 1 like)","PubChem SID":"SID135623223","CDH1-null / parental viability ratio":1.25,"CDH1-null viability vs mock":0.8}
{"target gene":"PHB1 (prohibitin 1)","PubChem SID":"SID134315030","CDH1-null / parental viability ratio":0.94,"CDH1-null viability vs mock":0.58}
{"target gene":"GP1BA (glycoprotein Ib platelet subunit alpha)","PubChem SID":"SID152153564","CDH1-null / parental viability ratio":1.15,"CDH1-null viability vs mock":0.86}
{"target gene":"ASAP3 (ArfGAP with SH3 domain, ankyrin repeat and PH domain 3)","PubChem SID":"SID134321066","CDH1-null / parental viability ratio":0.71,"CDH1-null viability vs mock":0.5}
{"target gene":"SHROOM4 (shroom family member 4)","PubChem SID":"SID135624471","CDH1-null / parental viability ratio":1,"CDH1-null viability vs mock":0.84}
{"target gene":"PDE1A (phosphodiesterase 1A)","PubChem SID":"SID152152725","CDH1-null / parental viability ratio":0.78,"CDH1-null viability vs mock":0.75}
{"target gene":"FBXL14 (F-box and leucine rich repeat protein 14)","PubChem SID":"SID134319746","CDH1-null / parental viability ratio":0.86,"CDH1-null viability vs mock":0.77}
{"target gene":"TECRL (trans-2,3-enoyl-CoA reductase like)","PubChem SID":"SID135624433","CDH1-null / parental viability ratio":1.04,"CDH1-null viability vs mock":0.88}
{"target gene":"MOB3B (MOB kinase activator 3B)","PubChem SID":"SID134322041","CDH1-null / parental viability ratio":1.09,"CDH1-null viability vs mock":0.84}
{"target gene":"MPP2 (MAGUK p55 scaffold protein 2)","PubChem SID":"SID152153278","CDH1-null / parental viability ratio":0.81,"CDH1-null viability vs mock":0.55}
{"target gene":"MBD4 (methyl-CpG binding domain 4, DNA glycosylase)","PubChem SID":"SID134315882","CDH1-null / parental viability ratio":0.97,"CDH1-null viability vs mock":0.97}
{"target gene":"PRXL2B (peroxiredoxin like 2B)","PubChem SID":"SID152153760","CDH1-null / parental viability ratio":0.89,"CDH1-null viability vs mock":0.82}
{"target gene":"FAM227B (family with sequence similarity 227 member B)","PubChem SID":"SID135623140","CDH1-null / parental viability ratio":0.77,"CDH1-null viability vs mock":0.77}
{"target gene":"TMX2 (thioredoxin related transmembrane protein 2)","PubChem SID":"SID135624093","CDH1-null / parental viability ratio":0.93,"CDH1-null viability vs mock":0.99}
{"target gene":"ATOSB (atos homolog B)","PubChem SID":"SID134323260","CDH1-null / parental viability ratio":1.28,"CDH1-null viability vs mock":0.74}
{"target gene":"LMAN1 (lectin, mannose binding 1)","PubChem SID":"SID134316416","CDH1-null / parental viability ratio":0.88,"CDH1-null viability vs mock":0.6}
{"target gene":"NUDT1 (nudix hydrolase 1)","PubChem SID":"SID134310815","CDH1-null / parental viability ratio":1.55,"CDH1-null viability vs mock":0.65}

Reformatted: results already given.
target gene,PubChem SID,CDH1-null / parental viability ratio,CDH1-null viability vs mock
ICA1L (islet cell autoantigen 1 like),SID135623223,1.25,0.8
PHB1 (prohibitin 1),SID134315030,0.94,0.58
GP1BA (glycoprotein Ib platelet subunit alpha),SID152153564,1.15,0.86
"ASAP3 (ArfGAP with SH3 domain, ankyrin repeat and PH domain 3)",SID134321066,0.71,0.5

Continued.
{"target gene":"SCARB2 (scavenger receptor class B member 2)","PubChem SID":"SID134316384","CDH1-null / parental viability ratio":1.02,"CDH1-null viability vs mock":0.82}
{"target gene":"MPPE1 (metallophosphoesterase 1)","PubChem SID":"SID152149504","CDH1-null / parental viability ratio":0.95,"CDH1-null viability vs mock":0.88}
{"target gene":"CYREN (cell cycle regulator of NHEJ)","PubChem SID":"SID134314815","CDH1-null / parental viability ratio":1.35,"CDH1-null viability vs mock":0.69}
{"target gene":"HOXD12 (homeobox D12)","PubChem SID":"SID134317333","CDH1-null / parental viability ratio":1.05,"CDH1-null viability vs mock":0.86}
{"target gene":"SCO1 (synthesis of cytochrome C oxidase 1)","PubChem SID":"SID135622220","CDH1-null / parental viability ratio":1.21,"CDH1-null viability vs mock":0.4}
{"target gene":"NDUFA1 (NADH:ubiquinone oxidoreductase subunit A1)","PubChem SID":"SID152152921","CDH1-null / parental viability ratio":0.71,"CDH1-null viability vs mock":0.54}
{"target gene":"SLC22A14","PubChem SID":"SID152155992","CDH1-null / parental viability ratio":0.96,"CDH1-null viability vs mock":0.72}
{"target gene":"BRI3 (brain protein I3)","PubChem SID":"SID135623941","CDH1-null / parental viability ratio":1.13,"CDH1-null viability vs mock":1.08}
{"target gene":"CAND1 (cullin associated and neddylation dissociated 1)","PubChem SID":"SID134319598","CDH1-null / parental viability ratio":1.25,"CDH1-null viability vs mock":1.15}
{"target gene":"PCDH11Y (protocadherin 11 Y-linked)","PubChem SID":"SID134317842","CDH1-null / parental viability ratio":0.93,"CDH1-null viability vs mock":0.86}
{"target gene":"XCL2 (X-C motif chemokine ligand 2)","PubChem SID":"SID152155814","CDH1-null / parental viability ratio":0.76,"CDH1-null viability vs mock":0.53}
{"target gene":"HAPLN4 (hyaluronan and proteoglycan link protein 4)","PubChem SID":"SID135625030","CDH1-null / parental viability ratio":0.96,"CDH1-null viability vs mock":0.98}
{"target gene":"SELENOO (selenoprotein O)","PubChem SID":"SID135621762","CDH1-null / parental viability ratio":1.07,"CDH1-null viability vs mock":0.86}
{"target gene":"CORO7 (coronin 7)","PubChem SID":"SID152152034","CDH1-null / parental viability ratio":1.67,"CDH1-null viability vs mock":0.7}
